The record followed here is the supplement of paper PMC10849652.

Chains of the proteins cited; added tags and fusions are not shown. Lines headed by an entry give the natural chain unless they say otherwise; changes in a name come on top.
UniProt P17936, whole entry, looked up: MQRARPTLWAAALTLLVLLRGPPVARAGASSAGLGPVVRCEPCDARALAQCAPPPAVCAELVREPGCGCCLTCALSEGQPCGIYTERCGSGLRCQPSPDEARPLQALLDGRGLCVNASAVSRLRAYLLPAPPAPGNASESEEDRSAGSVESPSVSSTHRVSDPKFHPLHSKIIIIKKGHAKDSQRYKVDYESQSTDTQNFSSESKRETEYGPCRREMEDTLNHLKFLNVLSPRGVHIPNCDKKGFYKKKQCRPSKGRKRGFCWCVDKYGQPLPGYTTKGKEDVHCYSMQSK
UniProt Q16891: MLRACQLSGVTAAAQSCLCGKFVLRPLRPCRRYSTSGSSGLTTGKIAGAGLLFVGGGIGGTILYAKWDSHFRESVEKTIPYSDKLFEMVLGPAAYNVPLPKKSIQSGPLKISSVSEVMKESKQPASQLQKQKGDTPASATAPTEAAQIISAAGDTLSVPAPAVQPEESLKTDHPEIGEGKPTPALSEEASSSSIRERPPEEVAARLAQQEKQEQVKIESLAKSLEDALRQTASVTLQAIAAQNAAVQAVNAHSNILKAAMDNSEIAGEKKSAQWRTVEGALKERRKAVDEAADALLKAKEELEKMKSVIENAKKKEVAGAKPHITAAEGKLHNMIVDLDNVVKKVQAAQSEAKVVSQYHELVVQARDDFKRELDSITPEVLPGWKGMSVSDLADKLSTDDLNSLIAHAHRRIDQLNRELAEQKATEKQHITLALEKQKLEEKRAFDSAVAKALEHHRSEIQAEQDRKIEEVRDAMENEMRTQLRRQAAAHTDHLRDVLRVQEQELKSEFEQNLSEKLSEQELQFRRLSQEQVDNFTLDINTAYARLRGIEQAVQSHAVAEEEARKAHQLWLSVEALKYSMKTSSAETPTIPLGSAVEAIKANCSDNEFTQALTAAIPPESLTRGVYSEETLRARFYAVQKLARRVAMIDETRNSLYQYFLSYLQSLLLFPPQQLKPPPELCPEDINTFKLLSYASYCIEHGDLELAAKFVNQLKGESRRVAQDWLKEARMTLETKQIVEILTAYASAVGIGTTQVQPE
UniProt Q13907: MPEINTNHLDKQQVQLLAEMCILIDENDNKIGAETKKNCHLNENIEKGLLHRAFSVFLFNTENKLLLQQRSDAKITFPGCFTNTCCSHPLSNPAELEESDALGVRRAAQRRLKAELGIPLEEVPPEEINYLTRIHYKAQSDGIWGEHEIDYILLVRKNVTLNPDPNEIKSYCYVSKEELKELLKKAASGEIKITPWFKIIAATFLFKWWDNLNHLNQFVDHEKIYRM
UniProt P01877, whole entry, looked up: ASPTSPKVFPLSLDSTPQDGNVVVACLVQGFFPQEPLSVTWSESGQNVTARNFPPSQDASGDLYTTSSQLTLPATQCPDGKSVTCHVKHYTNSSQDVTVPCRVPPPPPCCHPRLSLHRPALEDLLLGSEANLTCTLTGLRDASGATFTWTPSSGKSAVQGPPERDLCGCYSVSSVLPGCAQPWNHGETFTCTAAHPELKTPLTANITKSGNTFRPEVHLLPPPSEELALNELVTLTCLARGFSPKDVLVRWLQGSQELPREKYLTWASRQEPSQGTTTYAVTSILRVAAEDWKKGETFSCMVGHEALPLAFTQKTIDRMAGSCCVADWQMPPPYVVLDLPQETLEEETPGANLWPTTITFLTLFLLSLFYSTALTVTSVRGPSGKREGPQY
UniProt Q8NFU5: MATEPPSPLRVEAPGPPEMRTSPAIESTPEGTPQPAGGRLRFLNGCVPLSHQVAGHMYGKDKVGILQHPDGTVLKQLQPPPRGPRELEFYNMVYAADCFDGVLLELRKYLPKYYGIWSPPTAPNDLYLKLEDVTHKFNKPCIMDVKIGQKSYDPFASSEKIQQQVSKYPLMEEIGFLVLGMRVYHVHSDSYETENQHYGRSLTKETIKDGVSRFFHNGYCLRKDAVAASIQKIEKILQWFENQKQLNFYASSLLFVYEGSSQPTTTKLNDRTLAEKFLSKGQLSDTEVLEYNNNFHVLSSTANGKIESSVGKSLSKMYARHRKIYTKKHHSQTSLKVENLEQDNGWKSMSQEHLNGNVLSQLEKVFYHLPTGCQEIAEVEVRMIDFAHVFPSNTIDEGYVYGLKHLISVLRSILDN
UniProt Q8NBZ0, whole entry, looked up: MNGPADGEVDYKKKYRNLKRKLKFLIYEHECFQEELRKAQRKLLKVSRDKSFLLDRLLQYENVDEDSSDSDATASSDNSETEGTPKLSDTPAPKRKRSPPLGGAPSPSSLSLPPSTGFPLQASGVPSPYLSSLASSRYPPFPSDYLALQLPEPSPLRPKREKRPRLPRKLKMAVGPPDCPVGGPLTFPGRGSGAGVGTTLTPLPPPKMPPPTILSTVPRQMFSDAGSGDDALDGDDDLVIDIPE
UniProt P38570: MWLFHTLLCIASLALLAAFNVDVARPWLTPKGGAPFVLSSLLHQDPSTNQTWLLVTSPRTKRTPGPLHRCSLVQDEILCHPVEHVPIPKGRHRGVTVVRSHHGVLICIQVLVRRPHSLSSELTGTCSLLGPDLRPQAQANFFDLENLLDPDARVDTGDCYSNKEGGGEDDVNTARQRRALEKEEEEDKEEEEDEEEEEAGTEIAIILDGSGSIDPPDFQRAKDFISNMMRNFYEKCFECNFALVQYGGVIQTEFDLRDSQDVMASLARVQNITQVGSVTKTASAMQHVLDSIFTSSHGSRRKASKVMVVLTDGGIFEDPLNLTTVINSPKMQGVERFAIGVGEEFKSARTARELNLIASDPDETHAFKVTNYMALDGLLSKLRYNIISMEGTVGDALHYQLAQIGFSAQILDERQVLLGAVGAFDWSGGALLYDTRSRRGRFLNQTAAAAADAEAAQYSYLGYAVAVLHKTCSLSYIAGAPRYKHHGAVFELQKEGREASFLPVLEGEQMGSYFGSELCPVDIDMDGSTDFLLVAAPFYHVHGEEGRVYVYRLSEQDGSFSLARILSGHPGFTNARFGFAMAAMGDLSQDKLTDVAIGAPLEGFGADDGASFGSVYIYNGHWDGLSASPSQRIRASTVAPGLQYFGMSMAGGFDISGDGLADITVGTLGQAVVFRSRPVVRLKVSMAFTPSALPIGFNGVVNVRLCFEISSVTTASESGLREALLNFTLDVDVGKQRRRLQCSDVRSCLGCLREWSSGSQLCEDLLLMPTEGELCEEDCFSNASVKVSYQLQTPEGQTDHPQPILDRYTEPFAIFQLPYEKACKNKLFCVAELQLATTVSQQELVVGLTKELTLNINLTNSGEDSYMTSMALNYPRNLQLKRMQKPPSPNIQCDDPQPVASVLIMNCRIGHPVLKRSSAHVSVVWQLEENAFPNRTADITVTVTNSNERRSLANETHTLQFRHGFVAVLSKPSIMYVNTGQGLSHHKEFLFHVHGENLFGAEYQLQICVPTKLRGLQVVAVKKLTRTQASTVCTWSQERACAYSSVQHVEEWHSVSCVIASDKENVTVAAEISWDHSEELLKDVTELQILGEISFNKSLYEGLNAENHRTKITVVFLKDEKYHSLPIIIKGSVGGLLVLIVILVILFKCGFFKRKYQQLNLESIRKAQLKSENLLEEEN
UniProt Q8IY31, whole entry, looked up: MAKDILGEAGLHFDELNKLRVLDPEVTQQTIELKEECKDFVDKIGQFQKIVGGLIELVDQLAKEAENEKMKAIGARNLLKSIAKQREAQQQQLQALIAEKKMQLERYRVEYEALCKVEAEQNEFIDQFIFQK

Common to all, as to experiment: log2 fold change, soluble protein after heating vs DMSO (PISA); higher = thermal stabilisation; K562 cells, 10 uM, 30 min; active = over 0.2 and 3.5 SD of the protein, either way, in both replicates (recomputed)
Compound in one experiment: CN1CCN(CCOc2cc(OC3CCOCC3)c3c(Nc4c(Cl)ccc5c4OCO5)ncnc3c2)CC1 [saracatinib]
The gist of the method:
(§1)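 K562 cells (2×10^6 cells/mL) were treated with 10 μM compound for 30 min, and aliquots were heated for 3 min over 48°C-58°C. Pooled aliquots were extracted in PBS with 0.5% NP-40 at 4°C, and the supernatant after 21,000xg for 90 min was measured by TMTpro 16plex LC-MS/MS with channel sums equalised. Reported thermal stability, relative to control samples and from duplicates, is a log2 fold change.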

Compound in the next experiment: CN1CCN(c2nc(C3=C(c4c[nH]c5ccccc45)C(=O)NC3=O)c3ccccc3n2)CC1 [sotrastaurin]
An outline of the steps: as §1

Compound in the next experiment: CN1CCc2c(c3ccccc3n2Cc2ccc(C(=O)NO)cc2)C1 [Tubastatin A]
An outline of the steps: as §1

Compound in the next experiment: CNC(=O)c1ccc(Nc2ncc(C(F)(F)F)c(NCc3nccnc3N(C)S(C)(=O)=O)n2)cc1 [defactinib]
The gist of the method:
as §1

Compound in experiment [1]: CNc1nc(-c2ccc3c(N)n[nH]c3c2)cc(N2C[C@@H](C(=O)NC3CCCCC3)CC[C@H]2C)n1
An outline of the steps:
as §1

Compound in experiment [2]: COC(=O)[C@H](CCSC)NC(=O)C1=C(C=C(C=C1)NC[C@H](CS)N)C2=CC=CC=C2
An outline of the steps: as §1

Compound in experiment [3]: COC1=CC=C(C=C1)CN2C=CC3=C2C=C(C=C3)C(=O)NO
An outline of the steps: as §1

Compound in the next experiment: CON(C)C(=O)N1N=C(c2cc(F)ccc2F)S[C@@]1(CCCN)c1ccccc1 [filanesib]
The gist of the method: as §1

Compound in another experiment: CO[C@H]1C[C@@H]2CC[C@@H](C)[C@@](O)(O2)C(=O)C(=O)N2CCCC[C@H]2C(=O)O[C@H]([C@H](C)C[C@@H]2CC[C@H](n3cnnn3)[C@H](OC)C2)CC(=O)[C@H](C)/C=C(\C)[C@@H](O)[C@@H](OC)C(=O)[C@H](C)C[C@H](C)/C=C/C=C/C=C/1C [zotarolimus]
An outline of the steps:
as §1

Compound in a further experiment: COc1cc(C(=O)O)ccc1NC(=O)[C@@H]1N[C@@H](CC(C)(C)C)[C@](C#N)(c2ccc(Cl)cc2F)[C@H]1c1cccc(Cl)c1F [idasanutlin]
An outline of the steps:
as §1

Compound in experiment [4]: COc1cc2nc(-c3cc(F)ccc3O)nc(N[C@@H]3CNC[C@H]3C(C)(C)O)c2cc1OC
An outline of the steps:
as §1

Compound in another experiment: CS(=O)(=O)CCNCc1ccc(-c2ccc3ncnc(Nc4ccc(OCc5cccc(F)c5)c(Cl)c4)c3c2)o1 [lapatinib]
An outline of the steps:
as §1

Compound in a further experiment: CS(=O)(=O)N1CCN(Cc2cc3nc(-c4cccc5[nH]ncc45)nc(N4CCOCC4)c3s2)CC1 [pictilisib]
An outline of the steps:
as §1

Compound in experiment [5]: CNC(=O)C1=CC=CC=C1NC2=NC(=NC=C2Cl)NC3=C(C=C(C=C3)N4CCOCC4)OC
The gist of the method: as §1

Compound in another experiment: CNCc1ccc(-c2[nH]c3cc(F)cc4c3c2CCNC4=O)cc1 [rucaparib]
The gist of the method: as §1

Compound in another experiment: COC(=O)N[C@@H](C)CNc1nccc(-c2cn(C(C)C)nc2-c2cc(Cl)cc(NS(C)(=O)=O)c2F)n1 [encorafenib]
An outline of the steps:
as §1

Compound in another experiment: COc1cc(Nc2ncc3c(n2)-c2ccc(Cl)cc2C(c2c(F)cccc2OC)=NC3)ccc1C(=O)O [alisertib]
The gist of the method:
as §1

Compound in a further experiment: COc1cc2ncnc(Nc3ccc(F)c(Cl)c3)c2cc1OCCCN1CCOCC1 [gefitinib]
The gist of the method: as §1

Compound in experiment [6]: COc1cccc2cc(-c3nc([C@H]4CC[C@H](C(=O)O)CC4)n4ncnc(N)c34)[nH]c12
The gist of the method: as §1

Compound in another experiment: CN1CC[C@H](c2c(O)cc(O)c3c(=O)cc(-c4ccccc4Cl)oc23)[C@H](O)C1 [alvocidib]
An outline of the steps: as §1

The other results are listed elsewhere or left out.

For the target IGFBP3 isoform 2 (UniProt P17936), the log2 fold change in the experiment with saracatinib was inactive: -0.092; with sotrastaurin, inactive: 0.245; with Tubastatin A it was inactive: 0.001; with defactinib it was inactive: 0.17; in [1], inactive: -0.08; in [2], inactive: 0.045. The log2 fold change is inactive: 0.176 in experiment [3]; inactive: -0.272 with filanesib; active: -1.02 with zotarolimus; inactive: 0.535 in the experiment with idasanutlin; inactive: -0.103 in experiment [4]; inactive: 0.085 in the experiment with lapatinib. Also, in the experiment with pictilisib, the log2 fold change was inactive: -0.085.
Regarding IMMT isoform 2 (UniProt Q16891), the log2 fold change is inactive: -0.069 in the experiment with saracatinib; inactive: -0.036 in the experiment with sotrastaurin; inactive: -0.076 in the experiment with Tubastatin A; inactive: 0.131 in experiment [5]; inactive: 0.029 in the experiment with defactinib; inactive: 0.023 with rucaparib. The log2 fold change in experiment [1] was inactive: -0.111; with encorafenib it was inactive: 0.017; in [2] it was inactive: 0.067; in [3], inactive: 0.006; with filanesib, inactive: -0.101; in the experiment with zotarolimus it was inactive: -0.045. The log2 fold change in the experiment with idasanutlin was inactive: 0.04; with alisertib, inactive: -0.088; in experiment [4], inactive: -0.25; with gefitinib, inactive: -0.006; in experiment [6] it was inactive: 0.017; with lapatinib, inactive: -0.151. Moreover, in the experiment with pictilisib, the log2 fold change was inactive: -0.238.
IDI1 isoform 2 (UniProt Q13907): the log2 fold change is inactive: 0.01 with saracatinib; inactive: 0.065 with sotrastaurin; inactive: -0.174 with Tubastatin A; inactive: -0.002 in experiment [5]; inactive: -0.006 in the experiment with defactinib; inactive: -0.124 with rucaparib. Further, the log2 fold change in [1] was inactive: 0.002; with encorafenib it was inactive: -0.001; in experiment [2] it was inactive: 0.044; in [3], active: -0.314; in the experiment with filanesib it was inactive: 0.026; with zotarolimus it was inactive: 0.033. The log2 fold change in the experiment with idasanutlin is inactive: -0.006; with alisertib, inactive: -0.003; in experiment [4] it was inactive: 0.007; with gefitinib, inactive: 0.024; in experiment [6] it was inactive: 0.039; with lapatinib, inactive: -0.014. In addition, the log2 fold change with pictilisib was inactive: 0.089.
As to IGHA2 (UniProt P01877), the log2 fold change with gefitinib is inactive: 0.235.
Consider IGLC3 (UniProt P0DOY3), for which the log2 fold change was inactive: -0.078 in the experiment with rucaparib; inactive: -0.175 with encorafenib; inactive: 0.156 in the experiment with alisertib; inactive: 0.346 with gefitinib; inactive: -0.193 in experiment [6].
Regarding IPMK (UniProt Q8NFU5), the log2 fold change with gefitinib is inactive: 0.091.
In the case of INO80E (UniProt Q8NBZ0), the log2 fold change with Tubastatin A was inactive: 0.058; in experiment [5] it was inactive: 0.062; with rucaparib, inactive: -0.008; in the experiment with encorafenib it was inactive: -0.101; in experiment [3], inactive: 0.011; with idasanutlin, inactive: 0.162. The log2 fold change with alisertib is inactive: -0.036; in experiment [4] it was inactive: 0.116; in [6], inactive: 0.005; with lapatinib it was inactive: 0.038; in the experiment with pictilisib it was inactive: 0.139.
Turning to ITGAE (UniProt P38570), the log2 fold change in the experiment with sotrastaurin is inactive: -0.364; in the experiment with alvocidib, inactive: 0.113; in experiment [5], inactive: -0.328; with defactinib, inactive: 0.004; in [2], inactive: -0.018; in experiment [3], inactive: 0.169. Further, the log2 fold change in the experiment with filanesib is inactive: 0.09; with zotarolimus, inactive: -0.285; with alisertib, inactive: -0.16; in experiment [4], inactive: 0.296; with gefitinib it was inactive: -0.007; in [6] it was inactive: 0.149. Moreover, the log2 fold change with lapatinib is inactive: -0.164; with pictilisib it was inactive: 0.097.
For IFT20 isoform 2 (UniProt Q8IY31), the log2 fold change was inactive: -0.119 with sotrastaurin; inactive: 0.137 in [5]; inactive: -0.019 in the experiment with rucaparib; inactive: 0.081 with encorafenib; inactive: 0.059 with filanesib; inactive: 0.131 with alisertib. The log2 fold change in the experiment with gefitinib is inactive: 0.038; in experiment [6], inactive: -0.112.
